Results from PubChem BioAssay AID288 (DTP/NCI, 2004).
The list is a part of this screen's results and no random one: it is rich in T/C values a quarter to a half above the control, in often repeated tests (any T/C) and in doses without a T/C. Further doses and runs are listed elsewhere. T/C gives the treated animals as a percentage of the vehicle group. Schedules are NCI's codes, read here as Q, the interval in days (D) or hours (H), X, the number of doses. Some entries give survivors of the animals treated and no T/C: the source files T/C as zero there, which appears to mark a toxic dose or a test without result, not a measured value. Some doses without a T/C left all or most animals alive at the check, yet need not have been tolerated: the source hardly ever lists a survival T/C far under the control, and the zero likely stands for such cases as well. Counts of survivors are from the toxicity check (mostly the fifth day) where no day follows; animals may have died later. For survival time, this PubChem deposit counts one and a half times the control or more as active, and values a quarter to a half above the control carry no call in these data; other NCI protocols may use other cut-offs. Some entries hold several experiments; their values stand side by side, smallest first. Some T/C values are followed by the survivors on the day toxicity was checked, most often the fifth; without a count, all were alive then.

System: BDF1 mice, M5076 sarcoma s.c., survival/tumor T/C
Assay: NCI In Vivo Anticancer Drug Screen. Data for tumor model Sarcoma M5076 (subcutaneous) in B6D2F1 (BDF1) mice
Procedure: The antitumor activity of compounds was measured in mice bearing transplantable tumors. Survival or tumor size were measured and the results are expressed as the measurement made in the treated group (T) divided by the measurement made in the vehicle treated control group (C). The tumor model used in this assay is Sarcoma M5076 (subcutaneous) in B6D2F1 (BDF1) mice

[1] = T/C endpoint: median survival time, dose: 100.0 mg/kg/injection, schedule: Q01DX009 (ip), vehicle: saline with Tween-80, higher T/C = longer survival
[2] = T/C endpoint: median tumor weight (est.), dose: 50.0 mg/kg/injection, schedule: Q01DX009 (ip), vehicle: saline with Tween-80, evaluated on day 20, higher T/C = larger tumour
[3] = T/C endpoint: median survival time, dose: 200.0 mg/kg/injection, schedule: Q01DX009 (ip), vehicle: saline with Tween-80, higher T/C = longer survival
[4] = T/C endpoint: median tumor weight (est.), dose: 100.0 mg/kg/injection, schedule: Q01DX009 (ip), vehicle: saline with Tween-80, higher T/C = larger tumour
[5] = T/C endpoint: median tumor weight (est.), dose: 200.0 mg/kg/injection, schedule: Q01DX009 (ip), vehicle: saline with Tween-80, higher T/C = larger tumour

CC1(C)N=C(N)N=C(N)N1c1ccc(CCCCc2ccc(S(=O)(=O)F)cc2Cl)c(Cl)c1
T/C (T/C endpoint: median survival time, dose: 3.7 mg/kg/injection, schedule: Q01DX005 (ip), vehicle: other, higher T/C = longer survival): 134 % of control
T/C (T/C endpoint: median survival time, dose: 3.7 mg/kg/injection, schedule: Q01DX009 (ip), vehicle: other, higher T/C = longer survival): 143 % of control
T/C (T/C endpoint: median survival time, dose: 3.8 mg/kg/injection, schedule: Q01DX009 (ip), vehicle: other, higher T/C = longer survival): 125 % of control [8 of 9 alive on day 89]
T/C (T/C endpoint: median survival time, dose: 5.0 mg/kg/injection, schedule: Q01DX009 (ip), vehicle: other, higher T/C = longer survival): 125 % of control [8 of 9 alive on day 89]
T/C (T/C endpoint: median survival time, dose: 5.0 mg/kg/injection, schedule: Q01DX009 (ip), vehicle: saline with Tween-80, higher T/C = longer survival): 133 % of control
T/C (T/C endpoint: median survival time, dose: 7.5 mg/kg/injection, schedule: Q01DX001 (ip), vehicle: other, higher T/C = longer survival): 129 % of control
T/C (T/C endpoint: median survival time, dose: 7.5 mg/kg/injection, schedule: Q01DX005 (ip), vehicle: other, higher T/C = longer survival): 140 % of control [9 of 10 alive on day 89]
T/C (T/C endpoint: median survival time, dose: 7.5 mg/kg/injection, schedule: Q01DX009 (ip), vehicle: other, higher T/C = longer survival): 138 and 141 % of control
T/C (T/C endpoint: median survival time, dose: 10.0 mg/kg/injection, schedule: Q01DX009 (ip), vehicle: other, higher T/C = longer survival): 141 % of control [9 of 10 alive on day 89]
T/C (T/C endpoint: median survival time, dose: 12.0 mg/kg/injection, schedule: Q01DX009 (ip), vehicle: other, higher T/C = longer survival): 141 % of control
survivor count (T/C endpoint: median survival time, dose: 15.0 mg/kg/injection, schedule: Q01DX001 (iv), vehicle: other, higher T/C = longer survival): 2 of 10 on day 89
survivor count (T/C endpoint: median survival time, dose: 15.0 mg/kg/injection, schedule: Q01DX005 (iv), vehicle: other, higher T/C = longer survival): 0 of 12 on day 89
T/C (T/C endpoint: median survival time, dose: 18.0 mg/kg/injection, schedule: Q01DX009 (ip), vehicle: other, higher T/C = longer survival): 137 % of control [8 of 10 alive on day 109]
survivor count (T/C endpoint: median survival time, dose: 24.0 mg/kg/injection, schedule: Q01DX009 (ip), vehicle: other, higher T/C = longer survival): 0 of 5
survivor count (T/C endpoint: median survival time, dose: 27.0 mg/kg/injection, schedule: Q01DX009 (ip), vehicle: other, higher T/C = longer survival): 2 of 10 on day 109
survivor count (T/C endpoint: median survival time, dose: 30.0 mg/kg/injection, schedule: Q01DX001 (iv), vehicle: other, higher T/C = longer survival): 0 of 10 on day 89
survivor count (T/C endpoint: median survival time, dose: 30.0 mg/kg/injection, schedule: Q01DX005 (ip), vehicle: other, higher T/C = longer survival): 0 of 10 on day 89
survivor count (T/C endpoint: median survival time, dose: 30.0 mg/kg/injection, schedule: Q01DX005 (iv), vehicle: other, higher T/C = longer survival): 0 of 14 on day 89
survivor count (T/C endpoint: median survival time, dose: 30.0 mg/kg/injection, schedule: Q01DX009 (ip), vehicle: other, higher T/C = longer survival): 0 of 10 on day 89
survivor count (T/C endpoint: median survival time, dose: 40.0 mg/kg/injection, schedule: Q01DX009 (ip), vehicle: other, higher T/C = longer survival): 1 of 10 on day 89
survivor count (T/C endpoint: median survival time, dose: 50.0 mg/kg/injection, schedule: Q01DX009 (ip), vehicle: other, higher T/C = longer survival): 0 of 10 on day 89
survivor count (T/C endpoint: median survival time, dose: 60.0 mg/kg/injection, schedule: Q01DX001 (iv), vehicle: other, higher T/C = longer survival): 0 of 10 on day 89
survivor count (T/C endpoint: median survival time, dose: 60.0 mg/kg/injection, schedule: Q01DX005 (ip), vehicle: other, higher T/C = longer survival): 0 of 10 on day 89
survivor count (T/C endpoint: median survival time, dose: 60.0 mg/kg/injection, schedule: Q01DX009 (ip), vehicle: other, higher T/C = longer survival): 0 of 10 on day 89
survivor count [1]: 0 of 9
T/C (T/C endpoint: median survival time, dose: 120.0 mg/kg/injection, schedule: Q01DX001 (ip), vehicle: other, higher T/C = longer survival): 130 % of control [8 of 10 alive on day 89]
survivor count (T/C endpoint: median survival time, dose: 120.0 mg/kg/injection, schedule: Q01DX005 (ip), vehicle: other, higher T/C = longer survival): 3 of 10 on day 89
survivor count (T/C endpoint: median survival time, dose: 133.0 mg/kg/injection, schedule: Q01DX009 (ip), vehicle: saline with Tween-80, higher T/C = longer survival): 4 of 10 on day 109

N[C@H](C(=O)O)[C@@H]1CC(Cl)=NO1
T/C (T/C endpoint: median survival time, dose: 1.0 mg/kg/injection, schedule: Q01DX010 (ip), vehicle: saline, higher T/C = longer survival): 126 and 132 % of control
T/C (T/C endpoint: median survival time, dose: 2.0 mg/kg/injection, schedule: Q01DX010 (ip), vehicle: saline, higher T/C = longer survival): 142 % of control
T/C (T/C endpoint: median survival time, dose: 4.0 mg/kg/injection, schedule: Q01DX010 (ip), vehicle: saline, higher T/C = longer survival): 144 % of control
survivor count (T/C endpoint: median survival time, dose: 8.0 mg/kg/injection, schedule: Q01DX010 (ip), vehicle: saline, higher T/C = longer survival): 10 of 10
T/C (T/C endpoint: median survival time, dose: 8.0 mg/kg/injection, schedule: Q04DX005 (ip), vehicle: saline, evaluated on day 18, higher T/C = longer survival): 138 % of control
T/C (T/C endpoint: median survival time, dose: 8.0 mg/kg/injection, schedule: Q04DX005 (ip), vehicle: saline, evaluated on day 55, higher T/C = longer survival): 136 % of control
survivor count (T/C endpoint: median survival time, dose: 16.0 mg/kg/injection, schedule: Q01DX010 (ip), vehicle: saline, higher T/C = longer survival): 10 of 10
T/C (T/C endpoint: median survival time, dose: 16.0 mg/kg/injection, schedule: Q04DX005 (ip), vehicle: saline, evaluated on day 18, higher T/C = longer survival): 143 % of control
T/C (T/C endpoint: median survival time, dose: 16.0 mg/kg/injection, schedule: Q04DX005 (ip), vehicle: saline, evaluated on day 55, higher T/C = longer survival): 141 % of control

CC1(C)OC(C)(C)c2c1nnc(-c1ccccc1)[n+]2[O-]
T/C [2]: 125 % of control

C[C@@]12C(=O)OC(=O)[C@]1(C)[C@H]1CC[C@@H]2O1
survivor count (T/C endpoint: median survival time, dose: 1.6 mg/kg/injection, schedule: Q01DX009 (ip), vehicle: acetone, higher T/C = longer survival): 0 of 10 on day 9
survivor count (T/C endpoint: median tumor weight (est.), dose: 1.6 mg/kg/injection, schedule: Q01DX009 (ip), vehicle: acetone, higher T/C = larger tumour): 0 of 10 on day 20

C[CH2][Ge]1([CH2]C)[CH2]CC2(CCN(CCCN(C)C)C2)C[CH2]1
survivor count (T/C endpoint: mean tumor weight, dose: 100.0 mg/kg/injection, schedule: Q02DX011 (ip), vehicle: saline, higher T/C = larger tumour): 2 of 9 on day 22

O=C1c2c(O)ccc(O)c2C(=O)c2c(NCCNCCO)ccc(NCCNCCO)c21
survivor count (T/C endpoint: median tumor weight (est.), dose: 2.0 mg/kg/injection, schedule: Q02DX011 (ip), vehicle: water, higher T/C = larger tumour): 1 of 10 on day 22
survivor count (T/C endpoint: median tumor weight (est.), dose: 4.0 mg/kg/injection, schedule: Q02DX011 (ip), vehicle: water, higher T/C = larger tumour): 0 of 10 on day 22

C=C1C(O)C2OC3(CCC(/C=C/C(C)C4CC5(C)SC5C5(OC(CC(C)(O)C(=O)O)CCC5O)O4)O3)CCC2OC1C(O)CC(C)C1OC2(CCCCO2)CCC1C (stereo unspecified)
survivor count (T/C endpoint: median survival time, dose: 20.0 micrograms/kg/injection, schedule: Q01DX009 (ip), vehicle: saline + alcohol, higher T/C = longer survival): 3 of 10 on day 9
T/C (T/C endpoint: median tumor weight (est.), dose: 10.0 micrograms/kg/injection, schedule: Q01DX009 (ip), vehicle: saline + alcohol, evaluated on day 20, higher T/C = larger tumour): 136 % of control
survivor count (T/C endpoint: median tumor weight (est.), dose: 20.0 micrograms/kg/injection, schedule: Q01DX009 (ip), vehicle: saline + alcohol, higher T/C = larger tumour): 0 of 10 on day 20

O=C1CC(Cl)(CS(F)(F)(F)(F)F)O1 (stereo unspecified)
survivor count [1]: 0 of 10 on day 9
survivor count [3]: 0 of 10 on day 9
survivor count [4]: 0 of 10 on day 20
survivor count [5]: 0 of 10 on day 20

O=C(O)c1c(CS(F)(F)(F)(F)F)cc(=O)oc1CS(F)(F)(F)(F)F
survivor count [1]: 9 of 10 on day 9
survivor count [3]: 0 of 10 on day 9
T/C [2]: 139 % of control
survivor count [4]: 1 of 10 on day 20
survivor count [5]: 0 of 10 on day 20

CC[C@]1(O)C[C@H]2CN(CCc3c([nH]c4ccccc34)[C@@](C(=O)OC)(c3cc4c(cc3OC)N(C=O)[C@H]3[C@@](O)(C(=O)OC)[C@H](OC(C)=O)[C@]5(CC)C=CCN6CC[C@]43[C@@H]65)C2)C1
T/C (T/C endpoint: median survival time, dose: 0.04 mg/kg/injection, schedule: Q02DX030 (ip), vehicle: saline, higher T/C = longer survival): 125 % of control
survivor count (T/C endpoint: median survival time, dose: 0.15 mg/kg/injection, schedule: Q02DX033 (ip), vehicle: saline, higher T/C = longer survival): 10 of 10 on day 16
survivor count (T/C endpoint: median survival time, dose: 0.3 mg/kg/injection, schedule: Q02DX033 (ip), vehicle: saline, higher T/C = longer survival): 7 of 10 on day 16

CS(=O)(=O)OCCCCOS(C)(=O)=O
survivor count (T/C endpoint: mean tumor weight, dose: 30.0 mg/kg/injection, schedule: Q02DX011 (ip), vehicle: Klucel (hydroxypropylcellulose) (HPC), higher T/C = larger tumour): 5 of 10 on day 22
survivor count (T/C endpoint: mean tumor weight, dose: 60.0 mg/kg/injection, schedule: Q02DX011 (ip), vehicle: Klucel (hydroxypropylcellulose) (HPC), higher T/C = larger tumour): 0 of 10 on day 22

NCCNCC(O)CO (stereo unspecified)
T/C (T/C endpoint: median tumor weight (est.), dose: 50.0 mg/kg/injection, schedule: Q01DX009 (ip), vehicle: saline, evaluated on day 20, higher T/C = larger tumour): 144 % of control
